Reference: PubChem BioAssay AID493014 (National Center for Advancing Translational Sciences (NCATS), 2011)
Where “and” joins values, the source holds several entries; their conditions need not be identical. Identical values can stand only once. This is one part of the list. Further columns of the screen follow, without active or inactive calls. The list favours compounds with an active or inconclusive main result. Potencies come from curve fits of mixed quality, noted in brackets.

Experiment: qHTS Assay to Find Inhibitors of Chronic Active B-Cell Receptor Signaling
Conditions: ABC-DLBCL IkBa-CBG/CBR reporter, luminescence ratio (green luciferase fused to IkBa over red control in TMD8 lymphoma cells), 4 h
Outline: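 Cell line TMD8 (human ABC DLBCL), stably expressing tet-inducible CBG68-IkBa fusion and CBR; IMDM/0.5% FBS; cpd up to 46 uM; dox induction, 4 h, 37C/5% CO2; dual luminescence; green/red ratio; MG132 control.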

[1] = measured here: CBR red luminescence, cell number
[2] = measured here: IkBa-CBG green luminescence

SMILES	AC50 [1]	AC50 [2]
Cn1c(=O)c2c(nc(NN=C3CCCC3)n2C)n(C)c1=O	1.12 µM [falling, full curve, poor fit]	
CN(C)/C=N/n1cnc2ccccc2c1=O	35.5 µM [rising, single point]	
CCOC(=O)C1=CNS(=O)(=O)NC1c1ccc(C(F)(F)F)cc1 (centres undefined)	6.51 µM [rising, single point]	
C=CCn1c(SCC(=O)Nc2ccc(NC(C)=O)cc2)nc2sc(C)c(C)c2c1=O	3.66 µM [rising, partial curve]	
C/C(=N/NC(=O)c1cc(C)[nH]n1)c1ccco1	3.98 µM [falling, full curve]	
O=C(Nc1ncc([N+](=O)[O-])s1)c1cccs1	1.12 µM [falling, full curve] and 2.82 µM [falling, full curve, poor fit]	
Cc1cccc(C(=O)N/N=C/c2ccc[nH]2)c1	18.4 µM [falling, single point]	
COc1cc(C(=O)O[C@H]2CC(C)=CC[C@@]3(C)CC[C@@](O)(C(C)C)[C@H]23)ccc1O	35.5 µM [rising, single point]	
CCc1ccc(NC(=O)CN(c2cc(C)cc(C)c2)S(=O)(=O)c2c(C)[nH]c(=O)[nH]c2=O)cc1	6.31 µM [rising, single point]	
CC(C)CC(=O)N(c1nnc(-c2cccnc2)s1)C1CCCC1	25.1 µM [rising, single point]	
O=C(CCc1ccc(O)c(O)c1)NNC(=S)NCCc1ccccc1	4.11 µM [rising, single point]	
COc1ccc(CN2C(=O)C(Cc3ccccc3)Nc3ncnc(N4CCc5ccccc5C4)c32)cc1 (centres undefined)	10.3 µM [falling, partial curve]	
Nc1ncnc2c1ncn2[C@@H]1O[C@H](CNC(=O)[C@@H](N)C2CCCCC2)[C@@H](O)[C@H]1O	18.4 µM [rising, single point]	5.8 µM [falling, partial curve, poor fit]
C[C@@H]1CN([C@H](C)CO)C(=O)c2cc(NS(=O)(=O)c3ccc(F)cc3)ccc2O[C@@H]1CN(C)Cc1ccc(Cl)c(Cl)c1	29.1 µM [falling, single point]	
CCCCC(C(=O)NC1CCCC1)N(Cc1ccco1)C(=O)Cn1nnc(-c2ccc(F)cc2)n1 (centres undefined)	0.231 µM [falling, full curve, poor fit]	
CN(C)c1cccc(C(=O)NCc2ccc3c(c2)OCO3)c1	35.5 µM [falling, single point]	
Cc1ccc(Nc2oc(C)nc2C#N)cc1	8.91 µM [falling, partial curve, poor fit]	
COc1ccccc1CC(=O)Nc1ccc2[nH]ncc2c1	35.5 µM [falling, partial curve, poor fit]	
Cc1ccc(-n2cc(-c3ccc([N+](=O)[O-])cc3)[nH]c2=S)c(C)c1	1.84 µM [rising, full curve, poor fit]	
CC(=O)SC(C[N+](=O)[O-])c1cn(C(C)=O)c2ccccc12 (centres undefined)	35.5 µM [falling, single point]	
O=C(Nc1nc2ccc(SC(F)F)cc2s1)c1ccc(NS(=O)(=O)c2ccc(F)c(F)c2)cc1	18.4 µM [falling, single point]	

SMILES	AC50 [1]	AC50 [2]
COc1ccc(C(O)c2nc3ccccc3n2C(C)C)cc1 (centres undefined)	25.1 µM [falling, single point]	
Cc1cc(C)cc(C(=O)Nc2nc3ccccc3[nH]2)c1	2 µM [falling, full curve]	
CNC(=O)c1ccccc1NC(=O)c1c(O)c2c([nH]c1=O)CCCC2	0.651 µM [rising, partial curve, poor fit]	
O=C(CSc1ccc(C(F)(F)F)cc1[N+](=O)[O-])Nc1ccc2ccccc2c1	5.8 µM [rising, partial curve, poor fit]	
CCOc1ccc(-n2c(CCc3ccccc3)n[nH]c2=S)cc1	35.5 µM [rising, single point]	
O=c1c2cn[nH]c2nc(SCc2c(F)cccc2F)n1-c1ccc(Cl)cc1	22.4 µM [falling, single point]	
CC(=O)c1ccc(NC(=O)CN2CCN(c3ncccn3)CC2)cc1	29.1 µM [rising, single point]	
COc1ccc(CCNC(=S)NC2CCN(Cc3ccccc3)CC2)cc1OC	0.282 µM [falling, full curve, poor fit]	
Cc1oc(=O)cc(OCc2ccccc2)c1C	18.4 µM [rising, single point]	
COc1ccc(/C=C/C(=O)c2sc(-c3ccccc3)nc2C)cc1	7.31 µM [rising, partial curve]	
CSc1ncc(C(=O)Nc2ccc(C)cc2C)c(C)n1	5.01 µM [rising, full curve, poor fit]	
Cc1cc(C)c2c(N)c3ccccc3nc2n1	4.47 µM [falling, partial curve, poor fit]	
Cc1cc(NS(=O)(=O)c2ccc(NC(=O)/C=C/c3ccccc3Cl)cc2)no1	20 µM [falling, single point]	
CCC12CN3CCN(CC(C3)/C1=N\NC(=O)c1ccc(F)cc1)C2	0.316 µM [falling, partial curve, poor fit]	
O=C(NNc1nc(Nc2ccccc2)nc(N2CCOCC2)n1)Nc1ccc(Cl)cc1	5.62 µM [rising, partial curve]	
COc1ccc(OCc2cc(C(=O)NCCN3CCCc4ccccc43)no2)c(Cl)c1	35.5 µM [falling, single point]	
Cc1n[nH]c(C)c1S(=O)(=O)N1CCCC(C(=O)Nc2ccc3c(c2)OCCO3)C1 (centres undefined)	4.61 µM [rising, partial curve, poor fit]	
COc1cc(/C=N/NC(=S)Nc2cccc(C(=O)O)c2)ccc1O	1.46 µM [falling, full curve]	
COc1ccccc1NC(=O)COc1ccc(-c2nn(C)c(=O)c3ccccc23)cc1		10 µM [falling, partial curve]
CC(C)C(=O)N1CCN(CCN2C(=O)c3cccc4cccc(c34)C2=O)CC1	1.58 µM [rising, full curve, poor fit]	
CCCn1c(=O)c2c(nc3n2CCCN3Cc2ccccc2)n(C)c1=O	11.2 µM [falling, single point]	

SMILES	AC50 [1]	AC50 [2]
Cc1ccc2oc(=O)n(Cc3ccccc3OC(C)C)c2c1	16.4 µM [falling, single point]	
O=C(CNc1cccc(Cl)c1)c1ccc(Br)cc1	35.5 µM [rising, partial curve, poor fit]	
C/C(CCC1CC(C)OC1=O)=N\NC(N)=O (centres undefined)	0.891 µM [rising, full curve, poor fit]	
C/C(=N\NC(=O)c1nc(C)cc(C)n1)c1ccccc1	8.2 µM [falling, partial curve]	
O=[N+]([O-])c1ccc(-c2csc(Nc3ccccc3)[n+]2Cc2ccccc2)cc1	6.51 µM [rising, full curve, poor fit]	
COCC(C)n1c(C)cc(C(=O)CN2C(=O)NC(Cc3c[nH]c4ccccc34)C2=O)c1C (centres undefined)	29.1 µM [rising, single point]	
Cc1cc(Cl)ccc1OCc1nc(-c2ccc(O)cc2)n[nH]1	18.4 µM [falling, single point]	
Cc1ccc(Cl)c(OC(=O)c2nn(C(C)C)c(=O)c3ccccc23)c1	29.1 µM [rising, single point]	
CN1C(=O)c2ccc(NC(=O)c3cccc(N4C(=O)CCC4=O)c3)cc2C1=O	20 µM [falling, partial curve, poor fit]	
COC(=O)c1ccc(NC(=O)Nc2ccc(C)cc2)cc1	2.31 µM [falling, partial curve]	
COc1ccccc1-c1sc2cc3c(cc2c1C#Cc1ccccn1)OCO3	29.1 µM [rising, single point]	
O=C(NCCN1CCOCC1)/C(=C\c1ccc(Br)cc1)NC(=O)c1cccs1	18.4 µM [falling, single point]	
O=C(NC1CCCCC1)C(c1ccc2ncccc2c1)N(Cc1ccc(F)cc1)C(=O)c1cccs1 (centres undefined)	13 µM [falling, partial curve, poor fit]	
CC(Oc1cccnc1[N+](=O)[O-])C(=O)N1CCc2ccccc21 (centres undefined)	32.6 µM [rising, partial curve, poor fit]	
C#CCNC(=O)/C=C/c1ccc(OC)cc1	18.4 µM [falling, single point]	
O=C(C[C@H]1C/C=C\C[C@@H](Cc2ccc(F)cc2)C(=O)O[C@@H](c2ccccc2)CNC1=O)N[C@@H](CO)Cc1ccccc1		29.1 µM [rising, partial curve, poor fit]
Cc1ccc(C(=O)Nc2ccc(Oc3ccc(C(=O)O)c(C(=O)O)c3)cc2)cc1C	9.2 µM [falling, partial curve, poor fit]	
COc1ccc(N=Cc2c(O)c3ccccc3oc2=O)cc1	20.6 µM [falling, single point]	
C[C@@H](C(=O)N[C@@H](Cc1c[nH]c2ccccc12)C(=O)O)n1nnc2ccccc2c1=O	6.31 µM [rising, single point]	
O=C(COC(=O)c1cc[n+]([O-])cc1)Nc1ccc(F)c([N+](=O)[O-])c1	9.2 µM [falling, partial curve, poor fit]	
CCOC(=O)c1sc(NC(=O)c2ccco2)nc1C	1.58 µM [falling, partial curve, poor fit]	
